Reference: US12065673B2, “Method for obtaining human brown/beige adipocytes” (ETABLISSEMENT FRANCAIS DU SANG, priority 2015, dated 2024)
At least one structure is not confirmed: it was looked up by name or label, or the drawing left a doubt.

Tested on: differentiated spheroids from adipose tissue-derived SVF
Experiment: Browning marker expression in differentiated adipose spheroids (RT-qPCR)
Type: cell-based, human
Settings: 50 μM for 4 h

C=C[C@@]1(C)CC(=O)[C@]2(O)[C@@]3(C)[C@@H](O)CCC(C)(C)[C@@H]3[C@H](O)[C@H](OC(C)=O)[C@@]2(C)O1 [Forskolin]
UCP1 and PGC1A levels: further increased
